The results in this text go back to patent publication US20230287044A1 (priority 2020, published 2023).

Where a sequence shows no end group, the ends are not given. Square brackets hold non-standard residues; d marks the D form.

The data set in a line: general procedure: Fmoc solid-phase peptide synthesis; Rink-amide-MBHA resin; diisopropylcarbodiimide and 1-hydroxybenzotriazole. The note with it: whole synthesis.
For “H-[dR][dR][dR][dW][dI][dW][dV][dL][dW][dK]-NH2 (N-terminus assumed; SMILES CC[C@@H](C)[C@@H](NC(=O)[C@@H](Cc1c[nH]c2ccccc12)NC(=O)[C@@H](CCCNC(=N)N)NC(=O)[C@@H](CCCNC(=N)N)NC(=O)[C@H](N)CCCNC(=N)N)C(=O)N[C@H](Cc1c[nH]c2ccccc12)C(=O)N[C@@H](C(=O)N[C@H](CC(C)C)C(=O)N[C@H](Cc1c[nH]c2ccccc12)C(=O)N[C@H](CCCCN)C(N)=O)C(C)C)”, the “purity (crude or final not stated)” value stood at 98.707%.
Consider “H-[dW][dL][dV][dW][dI][dW][dR][dR][dQ][dR]-NH2 (N-terminus assumed; SMILES CC[C@@H](C)[C@@H](NC(=O)[C@@H](Cc1c[nH]c2ccccc12)NC(=O)[C@H](NC(=O)[C@@H](CC(C)C)NC(=O)[C@H](N)Cc1c[nH]c2ccccc12)C(C)C)C(=O)N[C@H](Cc1c[nH]c2ccccc12)C(=O)N[C@H](CCCNC(=N)N)C(=O)N[C@H](CCCNC(=N)N)C(=O)N[C@H](CCC(N)=O)C(=O)N[C@H](CCCNC(=N)N)C(N)=O)”, for which the “purity (crude or final not stated)” value is on record as 98.882%.
For “H-[dW][dL][dV][dW][dI][dW][dR][dR][dR]-NH2 (N-terminus assumed; SMILES CC[C@@H](C)[C@@H](NC(=O)[C@@H](Cc1c[nH]c2ccccc12)NC(=O)[C@H](NC(=O)[C@@H](CC(C)C)NC(=O)[C@H](N)Cc1c[nH]c2ccccc12)C(C)C)C(=O)N[C@H](Cc1c[nH]c2ccccc12)C(=O)N[C@H](CCCNC(=N)N)C(=O)N[C@H](CCCNC(=N)N)C(=O)N[C@H](CCCNC(=N)N)C(N)=O)” the value was 98.784%; for WLAWLYLRKKR, 98.728%.
Then WLLWLYARKKR, with 97.372%; and WLLWVYVRKKR, with 77.714%.
As to WLVYVWLRKKR, the “purity (crude or final not stated)” value is 98.361%.
Consider WLWVWVRKKR, for which the “purity (crude or final not stated)” value turned out to be 98.155%.
For WVVWVYVRKKR the value was 98.372%.
